Results: paper PMC4374768
Construct, isoform or probe ends are uncertain for at least one entry. At least one verdict was read from the data and is not stated in words by the source. Where a protein sequence is shown, tags need not be part of it.

Biological target: T1, His6-TyrR (UniProt B2D1S2)
T1 sequence (looked up, limits assumed): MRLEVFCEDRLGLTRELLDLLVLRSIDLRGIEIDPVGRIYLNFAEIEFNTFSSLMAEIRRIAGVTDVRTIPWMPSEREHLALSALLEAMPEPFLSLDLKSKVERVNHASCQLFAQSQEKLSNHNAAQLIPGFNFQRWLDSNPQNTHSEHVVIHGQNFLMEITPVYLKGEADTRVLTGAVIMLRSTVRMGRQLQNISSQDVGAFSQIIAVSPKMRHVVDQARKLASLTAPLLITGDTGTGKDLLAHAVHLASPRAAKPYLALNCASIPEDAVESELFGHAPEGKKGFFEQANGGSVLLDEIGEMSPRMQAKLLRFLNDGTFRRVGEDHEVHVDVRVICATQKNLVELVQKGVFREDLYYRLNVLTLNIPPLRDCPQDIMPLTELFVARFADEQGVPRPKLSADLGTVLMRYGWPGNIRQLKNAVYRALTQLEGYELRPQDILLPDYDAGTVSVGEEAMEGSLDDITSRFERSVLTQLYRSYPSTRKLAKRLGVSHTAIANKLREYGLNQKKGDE
Assay: EMSA
Settings: 0.1 mM ATP, no apparent affinity change, 20% glycerol, 250 mM NaCl, 50 mM Tris-Cl pH 7.5, 5 mM MgCl2, 2.5 mM DTT, 2.5 mM EDTA, 0.1 mM Trp, Phe or Tyr, 1 ug poly d(I-C), 50 ng DNA, recombinant protein, protein details: N-terminal His6, probe letters rebuilt from the primers and the genome

Measured: binding result

GGTTCGCATAACAGGTGTCCTTCTGACGTTGACCTCACTTTGAGTATTAAAGAAGCGTGATGGCTGTCCAGAATTGGTCGTAAGAAGGGCATGGAAAGAATGCTTTACAAAAAAGGCTGCGCTATGCTCTTTTTTTTCATGTAAATGTAAACGTATACACTGATTTTTCCTTTCAGCGCCAGAGGGCATCAGAATGGG (double strand) [akr-ipdC intergenic region wild-type]
binds: 0.1 mM L-phenylalanine | 0.1 mM L-tryptophan | 0.1 mM L-tyrosine
